These are yes or no findings as the source states them, for the method shown. In cells and extracts the contact can be indirect. A yes stands for co-enrichment or nearness to the bait. Other partners may have been found. For some of these results: Sequences can lack the tags named with a protein.
B1: LIG3 (protein, UniProt P49916 43-1009)
chain: LLHGHPLFLRRKPVLSFQGSHLRSRATYLVFLPGLHVGLCSGPCEMAEQRFCVDYAKRGTAGCKKCKEKIVKGVCRIGKVVPNPFSESGGDMKEWYHIKCMFEKLERARATTKKIEDLTELEGWEELEDNEKEQITQHIADLSSKAAGTPKKKAVVQAKLTTTGQVTSPVKGASFVTSTNPRKFSGFSAKPNNSGEAPSSPTPKRSLSSSKCDPRHKDCLLREFRKLCAMVADNPSYNTKTQIIQDFLRKGSAGDGFHGDVYLTVKLLLPGVIKTVYNLNDKQIVKLFSRIFNCNPDDMARDLEQGDVSETIRVFFEQSKSFPPAAKSLLTIQEVDEFLLRLSKLTKEDEQQQALQDIASRCTANDLKCIIRLIKHDLKMNSGAKHVLDALDPNAYEAFKASRNLQDVVERVLHNAQEVEKEPGQRRALSVQASLMTPVQPMLAEACKSVEYAMKKCPNGMFSEIKYDGERVQVHKNGDHFSYFSRSLKPVLPHKVAHFKDYIPQAFPGGHSMILDSEVLLIDNKTGKPLPFGTLGVHKKAAFQDANVCLFVFDCIYFNDVSLMDRPLCERRKFLHDNMVEIPNRIMFSEMKRVTKALDLADMITRVIQEGLEGLVLKDVKGTYEPGKRHWLKVKKDYLNEGAMADTADLVVLGAFYGQGSKGGMMSIFLMGCYDPGSQKWCTVTKCAGGHDDATLARLQNELDMVKISKDPSKIPSWLKVNKIYYPDFIVPDPKKAAVWEITGAEFSKSEAHTADGISIRFPRCTRIRDDKDWKSATNLPQLKELYQLSKEKADFTVVAGDEGSSTTGGSSEENKGPSGSAVSRKAPSKPSASTKKAEGKLSNSNSKDGNMQTAKPSAMKVGEKLATKSSPVKVGEKRKAADETLCQTKVLLDIFTGVRLYLPPSTPDFSRLRRYFVAFDGDLVQEFDMTSATHVLGSRDKNPAAQQVSPEWIWACIRKRRLVAPC
B2: hnRNPM (protein, UniProt P52272 1-730)
chain: MAAGVEAAAEVAATEIKMEEESGAPGVPSGNGAPGPKGEGERPAQNEKRKEKNIKRGGNRFEPYANPTKRYRAFITNIPFDVKWQSLKDLVKEKVGEVTYVELLMDAEGKSRGCAVVEFKMEESMKKAAEVLNKHSLSGRPLKVKEDPDGEHARRAMQKVMATTGGMGMGPGGPGMITIPPSILNNPNIPNEIIHALQAGRLGSTVFVANLDYKVGWKKLKEVFSMAGVVVRADILEDKDGKSRGIGTVTFEQSIEAVQAISMFNGQLLFDRPMHVKMDERALPKGDFFPPERPQQLPHGLGGIGMGLGPGGQPIDANHLNKGIGMGNIGPAGMGMEGIGFGINKMGGMEGPFGGGMENMGRFGSGMNMGRINEILSNALKRGEIIAKQGGGGGGGSVPGIERMGPGIDRLGGAGMERMGAGLGHGMDRVGSEIERMGLVMDRMGSVERMGSGIERMGPLGLDHMASSIERMGQTMERIGSGVERMGAGMGFGLERMAAPIDRVGQTIERMGSGVERMGPAIERMGLSMERMVPAGMGAGLERMGPVMDRMATGLERMGANNLERMGLERMGANSLERMGLERMGANSLERMGPAMGPALGAGIERMGLAMGGGGGASFDRAIEMERGNFGGSFAGSFGGAGGHAPGVARKACQIFVRNLPFDFTWKMLKDKFNECGHVLYADIKMENGKSKGCGVVKFESPEVAERACRMMNGMKLSGREIDVRIDRNA
B3: RBM14 (protein, UniProt Q96PK6 1-669)
chain: MKIFVGNVDGADTTPEELAALFAPYGTVMSCAVMKQFAFVHMRENAGALRAIEALHGHELRPGRALVVEMSRPRPLNTWKIFVGNVSAACTSQELRSLFERRGRVIECDVVKDYAFVHMEKEADAKAAIAQLNGKEVKGKRINVELSTKGQKKGPGLAVQSGDKTKKPGAGDTAFPGTGGFSATFDYQQAFGNSTGGFDGQARQPTPPFFGRDRSPLRRSPPRASYVAPLTAQPATYRAQPSVSLGAAYRAQPSASLGVGYRTQPMTAQAASYRAQPSVSLGAPYRGQLASPSSQSAAASSLGPYGGAQPSASALSSYGGQAAAASSLNSYGAQGSSLASYGNQPSSYGAQAASSYGVRAAASSYNTQGAASSLGSYGAQAASYGAQSAASSLAYGAQAASYNAQPSASYNAQSAPYAAQQAASYSSQPAAYVAQPATAAAYASQPAAYAAQATTPMAGSYGAQPVVQTQLNSYGAQASMGLSGSYGAQSAAAATGSYGAAAAYGAQPSATLAAPYRTQSSASLAASYAAQQHPQAAASYRGQPGNAYDGAGQPSAAYLSMSQGAVANANSTPPPYERTRLSPPRASYDDPYKKAVAMSKRYGSDRRLAELSDYRRLSESQLSFRRSPTKSSLDYRRLPDAHSDYARYSGSYNDYLRAAQMHSGYQRRM
B4: LUC7L2 (protein, UniProt Q9Y383 1-392)
chain: MSAQAQMRAMLDQLMGTSRDGDTTRQRIKFSDDRVCKSHLLNCCPHDVLSGTRMDLGECLKVHDLALRADYEIASKEQDFFFELDAMDHLQSFIADCDRRTEVAKKRLAETQEEISAEVAAKAERVHELNEEIGKLLAKVEQLGAEGNVEESQKVMDEVEKARAKKREAEEVYRNSMPASSFQQQKLRVCEVCSAYLGLHDNDRRLADHFGGKLHLGFIEIREKLEELKRVVAEKQEKRNQERLKRREEREREEREKLRRSRSHSKNPKRSRSREHRRHRSRSMSRERKRRTRSKSREKRHRHRSRSSSRSRSRSHQRSRHSSRDRSRERSKRRSSKERFRDQDLASCDRDRSSRDRSPRDRDRKDKKRSYESANGRSEDRRSSEEREAGEI
B5: ATF7IP (Activating Transcription Factor 7-Interacting Protein 1) (protein, UniProt Q6VMQ6 1-1270)
chain: MDSLEEPQKKVFKARKTMRVSDRQQLEAVYKVKEELLKTDVKLLNGNHENGDLDPTSPLENMDYIKDKEEVNGIEEICFDPEGSKAEWKETPCILSVNVKNKQDDDLNCEPLSPHNITPEPVSKLPAEPVSGDPAPGDLDAGDPASGVLASGDSTSGDPTSSEPSSSDAASGDATSGDAPSGDVSPGDATSGDATADDLSSGDPTSSDPIPGEPVPVEPISGDCAADDIASSEITSVDLASGAPASTDPASDDLASGDLSSSELASDDLATGELASDELTSESTFDRTFEPKSVPVCEPVPEIDNIEPSSNKDDDFLEKNGADEKLEQIQSKDSLDEKNKADNNIDANEETLETDDTTICSDRPPENEKKVEEDIITELALGEDAISSSMEIDQGEKNEDETSADLVETINENVIEDNKSENILENTDSMETDEIIPILEKLAPSEDELTCFSKTSLLPIDETNPDLEEKMESSFGSPSKQESSESLPKEAFLVLSDEEDISGEKDESEVISQNETCSPAEVESNEKDNKPEEEEQVIHEDDERPSEKNEFSRRKRSKSEDMDNVQSKRRRYMEEEYEAEFQVKITAKGDINQKLQKVIQWLLEEKLCALQCAVFDKTLAELKTRVEKIECNKRHKTVLTELQAKIARLTKRFEAAKEDLKKRHEHPPNPPVSPGKTVNDVNSNNNMSYRNAGTVRQMLESKRNVSESAPPSFQTPVNTVSSTNLVTPPAVVSSQPKLQTPVTSGSLTATSVLPAPNTATVVATTQVPSGNPQPTISLQPLPVILHVPVAVSSQPQLLQSHPGTLVTNQPSGNVEFISVQSPPTVSGLTKNPVSLPSLPNPTKPNNVPSVPSPSIQRNPTASAAPLGTTLAVQAVPTAHSIVQATRTSLPTVGPSGLYSPSTNRGPIQMKIPISAFSTSSAAEQNSNTTPRIENQTNKTIDASVSKKAADSTSQCGKATGSDSSGVIDLTMDDEESGASQDPKKLNHTPVSTMSSSQPVSRPLQPIQPAPPLQPSGVPTSGPSQTTIHLLPTAPTTVNVTHRPVTQVTTRLPVPRAPANHQVVYTTLPAPPAQAPLRGTVMQAPAVRQVNPQNSVTVRVPQTTTYVVNNGLTLGSTGPQLTVHHRPPQVHTEPPRPVHPAPLPEAPQPQRLPPEAASTSLPQKPHLKLARVQSQNGIVLSWSVLEVDRSCATVDSYHLYAYHEEPSATVPSQWKKIGEVKALPLPMACTLTQFVSGSKYYFAVRAKDIYGRFGPFCDPQSTDVISSTQSS

The chains behind the UniProt entries cited, without tags or fusion partners. Where a name states a change or a piece, a line headed by the entry shows the natural chain unless it says otherwise.
UniProt Q99549: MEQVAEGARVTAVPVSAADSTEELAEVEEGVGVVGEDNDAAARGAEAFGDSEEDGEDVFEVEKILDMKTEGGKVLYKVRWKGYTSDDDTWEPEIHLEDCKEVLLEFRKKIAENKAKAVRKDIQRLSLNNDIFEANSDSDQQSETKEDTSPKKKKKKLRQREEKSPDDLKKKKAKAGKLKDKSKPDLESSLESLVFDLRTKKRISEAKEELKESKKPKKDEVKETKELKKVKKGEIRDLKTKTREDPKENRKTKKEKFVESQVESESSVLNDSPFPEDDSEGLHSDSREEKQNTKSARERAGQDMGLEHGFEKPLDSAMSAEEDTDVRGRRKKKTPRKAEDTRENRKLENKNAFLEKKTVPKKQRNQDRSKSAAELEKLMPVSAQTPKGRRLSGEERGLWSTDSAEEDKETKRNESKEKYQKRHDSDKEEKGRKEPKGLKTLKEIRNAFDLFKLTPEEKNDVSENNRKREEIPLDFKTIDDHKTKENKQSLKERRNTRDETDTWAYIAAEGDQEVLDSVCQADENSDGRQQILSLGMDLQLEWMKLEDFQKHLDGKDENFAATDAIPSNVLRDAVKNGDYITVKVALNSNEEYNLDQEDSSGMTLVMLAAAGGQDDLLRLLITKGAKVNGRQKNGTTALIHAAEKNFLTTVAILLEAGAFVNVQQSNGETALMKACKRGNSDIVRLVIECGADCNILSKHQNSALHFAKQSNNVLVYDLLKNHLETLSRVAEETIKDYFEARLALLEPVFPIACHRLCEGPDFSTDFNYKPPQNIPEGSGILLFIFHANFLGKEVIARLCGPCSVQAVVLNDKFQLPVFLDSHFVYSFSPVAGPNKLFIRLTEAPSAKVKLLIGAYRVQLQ
UniProt P12956: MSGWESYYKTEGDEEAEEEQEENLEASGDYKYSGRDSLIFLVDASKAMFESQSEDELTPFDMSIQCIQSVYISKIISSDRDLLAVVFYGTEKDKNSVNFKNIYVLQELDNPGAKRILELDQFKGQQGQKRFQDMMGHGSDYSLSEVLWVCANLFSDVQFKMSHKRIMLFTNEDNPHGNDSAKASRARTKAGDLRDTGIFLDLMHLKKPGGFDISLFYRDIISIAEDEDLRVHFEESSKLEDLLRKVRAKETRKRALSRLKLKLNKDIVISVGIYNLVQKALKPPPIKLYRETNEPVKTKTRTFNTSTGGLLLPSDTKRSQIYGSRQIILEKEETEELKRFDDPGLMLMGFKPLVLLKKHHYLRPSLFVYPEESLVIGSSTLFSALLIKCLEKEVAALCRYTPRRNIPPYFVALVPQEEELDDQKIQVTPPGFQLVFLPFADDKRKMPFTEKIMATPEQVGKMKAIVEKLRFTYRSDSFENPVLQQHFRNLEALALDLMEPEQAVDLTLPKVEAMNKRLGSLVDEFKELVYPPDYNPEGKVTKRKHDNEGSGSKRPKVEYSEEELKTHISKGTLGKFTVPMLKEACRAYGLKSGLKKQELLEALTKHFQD
UniProt Q13148: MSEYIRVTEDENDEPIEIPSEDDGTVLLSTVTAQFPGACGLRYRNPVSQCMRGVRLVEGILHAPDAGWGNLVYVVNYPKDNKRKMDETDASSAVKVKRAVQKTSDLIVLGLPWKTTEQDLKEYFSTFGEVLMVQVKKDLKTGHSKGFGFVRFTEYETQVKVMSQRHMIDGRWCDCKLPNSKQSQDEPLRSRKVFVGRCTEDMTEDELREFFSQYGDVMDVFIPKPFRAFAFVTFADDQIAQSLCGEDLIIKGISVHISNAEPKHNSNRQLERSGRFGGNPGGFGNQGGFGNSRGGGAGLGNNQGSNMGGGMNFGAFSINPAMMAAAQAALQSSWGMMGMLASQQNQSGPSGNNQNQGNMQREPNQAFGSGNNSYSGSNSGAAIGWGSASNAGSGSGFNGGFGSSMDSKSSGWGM
UniProt Q92841: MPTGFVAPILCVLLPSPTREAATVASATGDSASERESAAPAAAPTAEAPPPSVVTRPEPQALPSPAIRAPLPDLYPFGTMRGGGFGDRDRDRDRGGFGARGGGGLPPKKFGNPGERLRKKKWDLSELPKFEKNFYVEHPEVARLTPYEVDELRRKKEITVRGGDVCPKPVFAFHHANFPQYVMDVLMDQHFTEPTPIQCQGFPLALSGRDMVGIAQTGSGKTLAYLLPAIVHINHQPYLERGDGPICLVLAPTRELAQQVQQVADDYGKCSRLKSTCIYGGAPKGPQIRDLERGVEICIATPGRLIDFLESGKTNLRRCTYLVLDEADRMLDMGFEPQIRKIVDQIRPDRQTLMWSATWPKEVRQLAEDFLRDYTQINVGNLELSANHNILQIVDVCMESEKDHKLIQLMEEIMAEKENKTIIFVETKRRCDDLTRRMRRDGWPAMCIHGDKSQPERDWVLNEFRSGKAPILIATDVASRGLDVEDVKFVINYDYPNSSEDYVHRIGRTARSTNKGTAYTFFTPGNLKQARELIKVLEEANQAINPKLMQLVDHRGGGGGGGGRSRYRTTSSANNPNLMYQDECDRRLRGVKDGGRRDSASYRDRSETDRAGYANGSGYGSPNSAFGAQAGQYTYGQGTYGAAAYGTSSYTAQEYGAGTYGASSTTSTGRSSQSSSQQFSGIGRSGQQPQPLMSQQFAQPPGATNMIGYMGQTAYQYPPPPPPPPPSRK
UniProt P18754: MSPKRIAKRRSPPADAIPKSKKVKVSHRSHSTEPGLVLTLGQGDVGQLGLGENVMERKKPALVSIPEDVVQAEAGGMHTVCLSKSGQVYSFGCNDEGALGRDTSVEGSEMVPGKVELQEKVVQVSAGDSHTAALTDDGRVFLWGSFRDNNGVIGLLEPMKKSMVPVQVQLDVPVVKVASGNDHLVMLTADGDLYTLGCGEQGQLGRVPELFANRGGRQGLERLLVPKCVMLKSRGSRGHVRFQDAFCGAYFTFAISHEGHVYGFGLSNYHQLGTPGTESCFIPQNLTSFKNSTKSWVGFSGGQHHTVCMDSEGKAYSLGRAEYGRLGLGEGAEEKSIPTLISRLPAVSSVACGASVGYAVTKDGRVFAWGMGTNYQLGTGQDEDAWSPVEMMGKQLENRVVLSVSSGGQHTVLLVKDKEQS
UniProt P13010: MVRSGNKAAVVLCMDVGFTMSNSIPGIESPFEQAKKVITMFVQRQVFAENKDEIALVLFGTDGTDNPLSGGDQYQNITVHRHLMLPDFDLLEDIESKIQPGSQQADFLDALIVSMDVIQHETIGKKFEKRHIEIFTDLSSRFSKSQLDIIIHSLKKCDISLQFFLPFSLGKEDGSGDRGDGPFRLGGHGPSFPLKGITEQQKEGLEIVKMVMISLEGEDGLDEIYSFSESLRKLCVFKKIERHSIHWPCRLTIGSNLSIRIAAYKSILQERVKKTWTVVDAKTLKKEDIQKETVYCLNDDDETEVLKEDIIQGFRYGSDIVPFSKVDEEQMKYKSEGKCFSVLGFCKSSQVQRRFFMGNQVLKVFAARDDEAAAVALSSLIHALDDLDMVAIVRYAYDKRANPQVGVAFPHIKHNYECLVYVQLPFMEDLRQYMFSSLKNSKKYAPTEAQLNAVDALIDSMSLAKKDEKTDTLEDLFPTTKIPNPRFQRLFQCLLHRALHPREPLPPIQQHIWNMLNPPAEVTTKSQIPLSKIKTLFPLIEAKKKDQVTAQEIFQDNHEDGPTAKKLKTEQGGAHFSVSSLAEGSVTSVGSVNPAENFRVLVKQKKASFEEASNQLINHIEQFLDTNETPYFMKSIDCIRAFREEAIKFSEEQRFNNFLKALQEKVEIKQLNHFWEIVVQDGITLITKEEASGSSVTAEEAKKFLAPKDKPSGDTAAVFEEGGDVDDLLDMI
UniProt P11387: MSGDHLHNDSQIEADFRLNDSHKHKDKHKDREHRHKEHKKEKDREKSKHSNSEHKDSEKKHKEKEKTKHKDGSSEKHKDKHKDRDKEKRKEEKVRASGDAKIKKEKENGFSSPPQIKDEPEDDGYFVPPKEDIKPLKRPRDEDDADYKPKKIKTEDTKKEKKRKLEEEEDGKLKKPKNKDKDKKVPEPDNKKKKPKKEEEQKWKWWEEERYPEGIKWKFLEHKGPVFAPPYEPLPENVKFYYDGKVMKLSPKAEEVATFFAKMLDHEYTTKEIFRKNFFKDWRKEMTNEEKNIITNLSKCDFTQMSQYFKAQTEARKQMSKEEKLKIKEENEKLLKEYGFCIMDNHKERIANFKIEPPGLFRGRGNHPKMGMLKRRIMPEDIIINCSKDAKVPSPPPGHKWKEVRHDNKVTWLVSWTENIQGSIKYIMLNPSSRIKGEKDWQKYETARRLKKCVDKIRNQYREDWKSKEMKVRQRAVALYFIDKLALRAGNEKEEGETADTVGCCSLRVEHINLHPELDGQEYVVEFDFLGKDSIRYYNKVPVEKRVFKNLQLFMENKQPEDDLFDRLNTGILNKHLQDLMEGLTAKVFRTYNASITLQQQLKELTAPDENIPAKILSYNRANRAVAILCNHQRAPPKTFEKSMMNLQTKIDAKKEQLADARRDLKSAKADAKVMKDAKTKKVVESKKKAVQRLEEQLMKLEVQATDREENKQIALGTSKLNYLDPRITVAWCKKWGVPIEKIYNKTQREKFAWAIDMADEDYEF
UniProt P67809: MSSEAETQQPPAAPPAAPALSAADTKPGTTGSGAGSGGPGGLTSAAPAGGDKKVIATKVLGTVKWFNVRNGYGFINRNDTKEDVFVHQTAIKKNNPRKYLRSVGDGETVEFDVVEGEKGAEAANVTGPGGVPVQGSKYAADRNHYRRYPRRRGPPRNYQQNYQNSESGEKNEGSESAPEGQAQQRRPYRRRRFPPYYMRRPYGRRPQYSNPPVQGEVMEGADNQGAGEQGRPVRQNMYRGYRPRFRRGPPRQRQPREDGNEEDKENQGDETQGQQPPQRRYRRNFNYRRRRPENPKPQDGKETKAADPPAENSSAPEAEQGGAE
UniProt P28370: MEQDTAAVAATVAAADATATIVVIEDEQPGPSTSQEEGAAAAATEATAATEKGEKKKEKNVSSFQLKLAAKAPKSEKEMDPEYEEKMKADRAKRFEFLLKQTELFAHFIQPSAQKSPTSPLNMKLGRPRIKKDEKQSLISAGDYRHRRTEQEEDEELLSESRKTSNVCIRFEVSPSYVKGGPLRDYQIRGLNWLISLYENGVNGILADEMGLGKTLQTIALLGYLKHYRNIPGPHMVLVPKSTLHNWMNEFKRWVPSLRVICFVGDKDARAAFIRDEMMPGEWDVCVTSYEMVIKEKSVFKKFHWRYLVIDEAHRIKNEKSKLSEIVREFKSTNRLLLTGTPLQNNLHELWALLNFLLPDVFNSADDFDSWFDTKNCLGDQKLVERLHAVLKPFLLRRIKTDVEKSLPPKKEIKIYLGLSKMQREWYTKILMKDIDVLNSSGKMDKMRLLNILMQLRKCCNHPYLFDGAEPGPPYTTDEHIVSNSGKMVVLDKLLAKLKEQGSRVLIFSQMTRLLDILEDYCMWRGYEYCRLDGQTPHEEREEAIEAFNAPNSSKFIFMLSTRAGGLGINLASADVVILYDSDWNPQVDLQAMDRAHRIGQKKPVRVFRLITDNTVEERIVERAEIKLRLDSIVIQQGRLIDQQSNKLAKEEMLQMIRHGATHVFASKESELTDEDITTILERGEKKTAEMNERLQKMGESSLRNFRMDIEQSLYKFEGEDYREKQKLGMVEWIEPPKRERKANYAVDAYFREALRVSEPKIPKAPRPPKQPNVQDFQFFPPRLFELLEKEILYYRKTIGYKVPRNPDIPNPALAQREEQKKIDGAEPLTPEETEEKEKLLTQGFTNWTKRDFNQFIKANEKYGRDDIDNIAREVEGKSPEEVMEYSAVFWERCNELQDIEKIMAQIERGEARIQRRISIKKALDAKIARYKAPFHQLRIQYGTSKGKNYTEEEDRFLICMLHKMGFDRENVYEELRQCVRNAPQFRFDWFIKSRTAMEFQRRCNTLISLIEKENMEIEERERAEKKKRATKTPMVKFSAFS
UniProt P35637: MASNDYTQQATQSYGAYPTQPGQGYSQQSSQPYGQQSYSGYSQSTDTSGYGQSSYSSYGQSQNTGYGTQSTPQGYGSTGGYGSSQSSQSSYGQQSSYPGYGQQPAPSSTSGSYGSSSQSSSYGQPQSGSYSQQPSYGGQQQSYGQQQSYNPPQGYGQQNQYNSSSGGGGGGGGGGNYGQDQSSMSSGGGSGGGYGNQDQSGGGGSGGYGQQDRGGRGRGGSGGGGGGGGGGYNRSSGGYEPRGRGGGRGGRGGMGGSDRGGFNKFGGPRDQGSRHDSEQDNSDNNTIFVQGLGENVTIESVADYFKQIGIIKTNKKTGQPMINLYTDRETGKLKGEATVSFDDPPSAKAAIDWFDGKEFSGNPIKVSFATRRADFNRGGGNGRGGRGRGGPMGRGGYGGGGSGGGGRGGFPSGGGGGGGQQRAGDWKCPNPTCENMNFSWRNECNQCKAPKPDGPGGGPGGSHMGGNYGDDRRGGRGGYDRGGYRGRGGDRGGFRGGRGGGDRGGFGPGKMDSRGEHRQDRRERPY

Each molecule was assayed against Flag-HA tagged MPP8 chromobox (human) (UniProt Q99549) (assay: affinity purification with mass spectrometry; double-affinity (Flag, then HA) immuno-purification of Flag-HA-MPP8 chromobox from nuclear soluble or nucleosome-enriched (chromatin) fractions of HeLa-S3 cells; 4-12% SDS-PAGE, mass spectrometry and Western blot).

Molecule	binding
XRCC6 (from UniProt P12956 1-609)	binds
TARDBP (from UniProt Q13148 1-414)	binds
DNA-PK (from UniProt P78527 1-4128)	binds
DDX17 (from UniProt Q92841 1-729)	binds
RCC1 (from UniProt P18754 1-421)	binds
XRCC5 (from UniProt P13010 1-732)	binds
G9A (from UniProt Q96KQ7 1-1210)	binds
hnRNPK (from UniProt P61978 1-463)	binds
DDX21 (from UniProt Q9NR30 1-783)	binds
TOP1 (from UniProt P11387 1-765)	binds
GLP (from UniProt Q9H9B1 1-1298)	binds
YBX1 (from UniProt P67809 1-324)	binds
SMARCA1 (from UniProt P28370 1-1042)	binds
hnRNPP2 (from UniProt P35637 1-526)	binds

Biological target: Flag-HA tagged MPP8 chromobox (human) (UniProt Q99549)
Assay: as above
Remark: another data set of the same source

Molecule	binding
B1	binds
B2	binds
B3	binds
B4	binds
B5	binds

Source: paper PMC6826936
